Entries after “also recorded” stand apart in the source; their conditions may differ.
Key:
[1] = Analytical results (observed concentration) of the sensory test samples; conditions: theoretical 175 ppm in LSB, n = 2
[2] = test system: Yarrowia lipolytica; experiment: Tolerance to microbial hydrolysis: yeast incubated in YPD with the mogroside, supernatant analyzed by HPLC; format: cell-based; conditions: 1 mg/ml, after 3 days
[3] = test system: Candida bombicola; experiment: as above; format: cell-based; conditions: 1 mg/ml, after 3 days
[4] = test system: Saccharomyces cerevisiae; experiment: as above; format: cell-based; conditions: 1 mg/ml, after 3 days
[5] = test system: Y. lipolytica; experiment: Yeast grown in the presence of the mogroside, cells lysed, mogroside content by HPLC; format: cell-based
[6] = test system: S. cerevisiae; experiment: as above; format: cell-based; conditions: for mogroside content by HPLC: S. cerevisiae, lysed cells

Structure (SMILES) | Observed (μM) ([1]; Test day) | Observed (μM) ([1]; the day before the testing day) | hydrolysis products observed by HPLC [2] | hydrolysis products observed by HPLC [3] | hydrolysis products observed by HPLC [4] | hydrolysis products ([5]; Y. lipolytica grown in the presence of the compound) | hydrolysis products ([6]; S. cerevisiae grown in the presence of the compound) | mogroside content by HPLC ([5]; Y. lipolytica, after 2 days of incubation, lysed cells) | mogroside content by HPLC ([6]; after 1 day of incubation) | mogroside content by HPLC ([6]; after 2 days of incubation)
C[C@H](CC[C@@H](O[C@@H]1O[C@H](CO[C@H]2O[C@H](CO)[C@@H](O)[C@H](O)[C@H]2O)[C@@H](O)[C@H](O)[C@H]1O[C@@H]1O[C@H](CO)[C@@H](O)[C@H](O)[C@H]1O)C(C)(C)O)C1CC[C@@]2(C)C3CC=C4C(CC[C@H](O[C@@H]5O[C@H](CO)[C@@H](O)[C@H](O)[C@H]5O)C4(C)C)[C@]3(C)[C@H](O)C[C@]12C (stereo partly shown) [Compound 1] | 132.20 ± 1.54 (n = 2) μM | 134.48 ± 7.31 (n = 2) μM | no hydrolysis products observed | no hydrolysis products observed | no hydrolysis products observed | no hydrolysis product from Compound 1 was detected; also recorded: no hydrolysis products due to hydrolysis of Compound 1 was observed | no hydrolysis product from Compound 1 was detected; also recorded: no hydrolysis products due to hydrolysis of Compound 1 was observed |  |  | 
C[C@H](CC[C@@H](O[C@@H]1O[C@H](CO[C@@H]2O[C@H](CO)[C@@H](O)[C@H](O)[C@H]2O)[C@@H](O)[C@H](O)[C@H]1O[C@@H]1O[C@H](CO)[C@@H](O)[C@H](O)[C@H]1O)C(C)(C)O)[C@H]1CC[C@@]2(C)[C@@H]3CC=C4[C@@H](CC[C@H](O[C@@H]5O[C@H](CO[C@@H]6O[C@H](CO)[C@@H](O)[C@H](O)[C@H]6O)[C@@H](O)[C@H](O)[C@H]5O)C4(C)C)[C@]3(C)[C@H](O)C[C@]12C [Mogroside V, reference compound] |  |  | hydrolyzed Mogroside V to Mogroside IIIE | hydrolyzed Mogroside V to Mogroside IIIE | hydrolyzed Mogroside V to Mogroside IIIE |  |  | produced mostly Mogroside IIIE | produced a mixture of Mogroside V, Mogrosides IV, and Mogroside IIIE | substantially all of the mogrosides were converted to Mogroside IIIE

— patent US11060124B2, “Methods for making high intensity sweeteners” (Firmenich Incorporated, priority 2017, dated 2021)
